Data as given in PubChem BioAssay AID1159578 (Peter MacCallum Cancer Centre, 2015).
This is a random part of about 18,000 reagents tested. Over the whole deposit, about 1,030 (5.7%) got an active call. 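Inactive calls also include pools with fewer than 3300 nuclei, whose migration was not assessed.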 The raw values are shown without normalisation. Further read-outs or replicates are left out here.

Purpose: 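Knock-downs that alter how fast lymphatic endothelial cells migrate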 (primary screen)
Cell system: human lymphatic endothelial cells
Knock-down reagent: siRNA pool against human genes, 40 nM
Time to read-out: 48 h after transfection
Read-out: 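High-content imaging of dye-stained cells in a scratch assay measures filled wound area and nuclei per well; duplicate means given as ratio to mock and robust z-score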
Reading the numbers: migration robust z-score: higher = faster migration into the scratch; nuclei per well: higher = more cells in the well
Active means: 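Pools averaging fewer than 3300 nuclei are never called; remaining pools count as changed when migration robust z lies outside -2 to 2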
Meaning of the calls: active = migration changed; inactive = no migration change, or too few cells

ATP8A2 gave migration robust z-score 0; nuclei per well, duplicate mean 6242; inactive.
After knock-down of CABP1 the results were migration robust z-score 1.42; nuclei per well, duplicate mean 6192; inactive.
With knock-down of PDE9A, the record shows migration robust z-score 0.86; nuclei per well, duplicate mean 5448; inactive.
KRT23 gave migration robust z-score 0.99; nuclei per well, duplicate mean 6660; inactive.
For CCDC134, the entry reads migration robust z-score 0.24; nuclei per well, duplicate mean 6550; inactive.
IMPDH2 scored migration robust z-score 0.36; nuclei per well, duplicate mean 5426; inactive.
Silencing of DCUN1D4 came out at: migration robust z-score 1.45; nuclei per well, duplicate mean 5220; inactive.
KDM1B gave migration robust z-score -0.32; nuclei per well, duplicate mean 6437; inactive.
Knock-down of KHDC1 resulted in: migration robust z-score -0.62; nuclei per well, duplicate mean 4372; inactive.
Knock-down of SLC22A24 resulted in: migration robust z-score -3; nuclei per well, duplicate mean 3778; active.
Knock-down of TMEM97 gave: migration robust z-score -0.22; nuclei per well, duplicate mean 5664; inactive.
After knock-down of TUBG1 the results were migration robust z-score -0.86; nuclei per well, duplicate mean 4630; inactive.
With knock-down of POLR2G, the record shows migration robust z-score -0.75; nuclei per well, duplicate mean 4924; inactive.
Against ZC3H11D the deposit lists migration robust z-score 0.94; nuclei per well, duplicate mean 5726; inactive.
Against CLEC4M, the entry reads migration robust z-score 1.12; nuclei per well, duplicate mean 5668; inactive.
Knock-down of PIGH resulted in: migration robust z-score 0.54; nuclei per well, duplicate mean 6899; inactive.
ATP6V1C2 scored migration robust z-score 1.66; nuclei per well, duplicate mean 6198; inactive.
SGCD scored migration robust z-score -1.32; nuclei per well, duplicate mean 6136; inactive.
Against PF4V1, the values are migration robust z-score 0.43; nuclei per well, duplicate mean 5284; inactive.
Silencing of GREB1 resulted in: migration robust z-score 1.45; nuclei per well, duplicate mean 6046; inactive.
For FTCD, the entry reads migration robust z-score 0.71; nuclei per well, duplicate mean 5393; inactive.

Hits, of those listed so far:
SLC22A24: migration robust z-score = -3; nuclei per well, duplicate mean = 3778; outcome = active
